The record followed here is the supplement of paper PMC10849652.

The chains behind the UniProt entries cited, without tags or fusion partners. Where a name states a change or a piece, a line headed by the entry shows the natural chain unless it says otherwise.
UniProt Q9H0U3: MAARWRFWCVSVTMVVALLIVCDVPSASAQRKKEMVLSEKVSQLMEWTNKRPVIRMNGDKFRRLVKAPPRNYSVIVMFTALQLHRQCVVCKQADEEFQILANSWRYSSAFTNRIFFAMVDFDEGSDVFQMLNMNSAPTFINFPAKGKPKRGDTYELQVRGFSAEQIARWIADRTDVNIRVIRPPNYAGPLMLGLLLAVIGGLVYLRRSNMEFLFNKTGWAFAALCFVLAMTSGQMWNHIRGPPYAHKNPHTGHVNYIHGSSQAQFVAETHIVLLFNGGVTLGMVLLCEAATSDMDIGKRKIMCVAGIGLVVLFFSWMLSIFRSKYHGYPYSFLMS
UniProt P07948: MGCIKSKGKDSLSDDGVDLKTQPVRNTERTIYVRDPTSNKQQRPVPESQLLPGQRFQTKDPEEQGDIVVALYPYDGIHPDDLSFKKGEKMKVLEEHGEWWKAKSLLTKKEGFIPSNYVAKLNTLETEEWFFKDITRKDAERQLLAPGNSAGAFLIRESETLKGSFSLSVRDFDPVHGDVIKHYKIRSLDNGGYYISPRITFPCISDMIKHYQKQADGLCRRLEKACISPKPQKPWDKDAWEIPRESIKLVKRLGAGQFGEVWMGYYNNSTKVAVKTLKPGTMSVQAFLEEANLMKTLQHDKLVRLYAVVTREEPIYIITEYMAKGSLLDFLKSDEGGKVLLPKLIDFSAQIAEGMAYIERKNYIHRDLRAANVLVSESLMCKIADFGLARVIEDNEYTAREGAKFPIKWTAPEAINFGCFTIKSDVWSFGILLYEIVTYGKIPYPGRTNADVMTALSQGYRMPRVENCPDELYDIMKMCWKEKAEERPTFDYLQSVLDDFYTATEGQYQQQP
UniProt P43356, whole entry, looked up: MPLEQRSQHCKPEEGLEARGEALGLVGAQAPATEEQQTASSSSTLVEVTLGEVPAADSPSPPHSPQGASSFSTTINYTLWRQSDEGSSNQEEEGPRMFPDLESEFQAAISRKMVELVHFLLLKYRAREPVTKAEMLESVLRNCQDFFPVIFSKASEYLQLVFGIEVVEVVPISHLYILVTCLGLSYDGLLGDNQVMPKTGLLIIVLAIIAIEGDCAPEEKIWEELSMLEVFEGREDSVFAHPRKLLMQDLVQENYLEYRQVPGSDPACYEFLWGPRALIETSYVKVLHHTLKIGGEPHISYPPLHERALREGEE
UniProt Q9BSK0: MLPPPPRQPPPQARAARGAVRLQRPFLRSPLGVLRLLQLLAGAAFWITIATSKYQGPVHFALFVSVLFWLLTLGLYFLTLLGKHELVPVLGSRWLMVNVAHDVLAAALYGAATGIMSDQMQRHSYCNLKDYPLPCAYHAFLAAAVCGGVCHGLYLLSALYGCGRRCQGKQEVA
UniProt O95382: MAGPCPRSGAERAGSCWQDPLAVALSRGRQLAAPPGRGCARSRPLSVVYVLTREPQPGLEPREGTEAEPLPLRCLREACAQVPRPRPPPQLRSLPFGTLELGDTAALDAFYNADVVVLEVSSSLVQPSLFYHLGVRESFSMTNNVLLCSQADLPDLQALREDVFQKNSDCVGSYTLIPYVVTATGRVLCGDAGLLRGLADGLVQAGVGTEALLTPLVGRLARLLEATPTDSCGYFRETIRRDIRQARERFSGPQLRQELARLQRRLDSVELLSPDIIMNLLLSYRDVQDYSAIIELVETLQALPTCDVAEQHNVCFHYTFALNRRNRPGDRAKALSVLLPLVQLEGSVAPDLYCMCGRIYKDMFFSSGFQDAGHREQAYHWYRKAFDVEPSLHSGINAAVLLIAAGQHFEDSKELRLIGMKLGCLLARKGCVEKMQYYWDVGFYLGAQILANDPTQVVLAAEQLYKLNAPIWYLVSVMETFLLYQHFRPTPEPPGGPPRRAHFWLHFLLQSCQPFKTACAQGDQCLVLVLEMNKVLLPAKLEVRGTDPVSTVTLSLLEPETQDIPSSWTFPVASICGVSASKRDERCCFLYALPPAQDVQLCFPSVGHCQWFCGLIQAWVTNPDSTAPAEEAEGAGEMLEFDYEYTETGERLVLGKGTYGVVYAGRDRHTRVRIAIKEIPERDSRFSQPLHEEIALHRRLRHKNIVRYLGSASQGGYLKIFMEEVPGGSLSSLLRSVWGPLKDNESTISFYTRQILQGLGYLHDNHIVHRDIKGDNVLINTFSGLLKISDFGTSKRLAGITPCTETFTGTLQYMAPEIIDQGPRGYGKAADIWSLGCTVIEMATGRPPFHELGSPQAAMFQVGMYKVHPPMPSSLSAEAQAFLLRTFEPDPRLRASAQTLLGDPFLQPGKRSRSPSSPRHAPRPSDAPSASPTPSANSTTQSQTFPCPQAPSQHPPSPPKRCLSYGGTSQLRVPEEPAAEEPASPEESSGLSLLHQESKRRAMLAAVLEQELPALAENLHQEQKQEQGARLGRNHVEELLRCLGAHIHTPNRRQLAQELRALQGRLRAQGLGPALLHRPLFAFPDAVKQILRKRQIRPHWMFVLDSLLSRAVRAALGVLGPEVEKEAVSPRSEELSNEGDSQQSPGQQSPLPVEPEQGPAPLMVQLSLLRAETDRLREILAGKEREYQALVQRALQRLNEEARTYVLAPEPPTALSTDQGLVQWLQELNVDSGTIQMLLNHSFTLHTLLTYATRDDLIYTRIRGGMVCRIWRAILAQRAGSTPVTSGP
UniProt Q8TD08: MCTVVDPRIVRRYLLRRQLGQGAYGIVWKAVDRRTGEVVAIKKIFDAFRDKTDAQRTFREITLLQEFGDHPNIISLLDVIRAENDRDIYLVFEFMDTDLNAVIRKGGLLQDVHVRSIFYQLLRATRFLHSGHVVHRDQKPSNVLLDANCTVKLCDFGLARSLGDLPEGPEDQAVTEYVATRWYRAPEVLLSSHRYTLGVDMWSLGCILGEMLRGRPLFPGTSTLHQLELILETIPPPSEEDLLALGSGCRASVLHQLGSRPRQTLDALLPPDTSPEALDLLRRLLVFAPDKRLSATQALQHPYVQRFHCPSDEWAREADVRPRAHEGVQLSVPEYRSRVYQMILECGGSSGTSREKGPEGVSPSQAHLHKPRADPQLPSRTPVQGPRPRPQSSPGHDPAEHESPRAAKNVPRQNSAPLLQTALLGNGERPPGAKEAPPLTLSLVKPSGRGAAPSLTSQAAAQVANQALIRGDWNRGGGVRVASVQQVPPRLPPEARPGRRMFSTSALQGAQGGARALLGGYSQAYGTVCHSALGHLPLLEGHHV

Common to all, as to test: log2 fold change, soluble protein after heating vs DMSO (PISA); higher = thermal stabilisation; K562 lysate, 10 uM; active = over 0.2 and 3.5 SD of the protein, either way, in both replicates (recomputed)
Compound in one assay: C=CC(=O)N1CCC[C@@H](n2nc(-c3ccc(Oc4ccccc4)cc3)c3c(N)ncnc32)C1 [ibrutinib]
The procedure, abridged: (§1)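 Pellets of K562 cells were dounce-homogenised in PBS pH 7.4 with 1 mM MgCl2, and the crude extract was held at 1 mg/mL protein for a 30 min treatment with 10 μM compound. Aliquots were heated for 3 min over 48°C-58°C and pooled before NP-40 was added to 0.5% at 4°C. The supernatant from 21,000xg for 90 min was quantified by TMTpro 16plex LC-MS/MS with channel sums equalised. Values are reported from duplicates as log-two fold change in thermal stability relative to solvent controls.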

Compound in assay [1]: CC(=O)c1cnc2ccc(-c3cc(Cl)c(O)c(Cl)c3)nc2c1N[C@H]1CC[C@H](CN(C)C)CC1
The method, boiled down:
as §1

Compound in another assay: CC(C)(C)Cn1c(N)nc2ccc(-c3[nH]c(C(C)(C)C)nc3-c3ccc(F)cc3)nc21 [ralimetinib]
The procedure, abridged: as §1

Compound in assay [2]: CC(C)(O)CC(=O)NCCn1ccc2ncnc(Nc3ccc(Oc4cccc(C(F)(F)F)c4)c(Cl)c3)c21
The procedure, abridged: as §1

Compound in assay [3]: CC(C)C1=C2N=C(C=C(N2N=C1)NCC3=CC=CC=C3)NCCCCCCN
The procedure, abridged: as §1

Compound in assay [4]: CC1=C(C(CC(=O)N1)C2=CC=C(C=C2)C(F)(F)F)C(=O)NC3=C(C=C4C(=C3)C=NN4)F
The method, boiled down: as §1

Compound in assay [5]: CC1=C(C2=C(C=C1)C(=O)C3=CC=CC=C3N2CCCN)C
The procedure, abridged: as §1

Compound in assay [6]: CC1=C(C=C(C=C1)NC(=O)C2=CC(=CC=C2)C(C)(C)C#N)NC3=CC4=C(C=C3)N=CN(C4=O)C
The method, boiled down:
as §1

Compound in assay [7]: CC1=C(C=C(C=C1)NC(=O)C2=CC(=CC=C2)N(C)C)NC(=O)C3=CC=C(C=C3)O
The method, boiled down:
as §1

Compound in assay [8]: CC1=CC=C(C=C1)SC2=C3C=C(SC3=CN=C2)C(=O)N
The method, boiled down:
as §1

Compound in another assay: CCCS(=O)(=O)Nc1ccc(F)c(C(=O)c2c[nH]c3ncc(-c4ccc(Cl)cc4)cc23)c1F [vemurafenib]
The method, boiled down:
as §1

Compound in assay [9]: CCCS(=O)(=O)Nc1ccc(F)c(C(=O)c2c[nH]c3ncc(Cl)cc23)c1F
The procedure, abridged: as §1

Compound in the next assay: CCN(CCCOc1ccc2c(Nc3cc(CC(=O)Nc4cccc(F)c4)[nH]n3)ncnc2c1)CCOP(=O)(O)O [barasertib]
The procedure, abridged:
as §1

Compound in assay [10]: CC[C@@H]1C(=O)N(C)c2cnc(Nc3ccc(C(=O)NC4CCN(C)CC4)cc3OC)nc2N1C1CCCC1
The method, boiled down: as §1

Compound in the next assay: CC[C@@H]1C(=O)N(C)c2cnc(Nc3ccc(C(=O)N[C@H]4CC[C@H](N5CCN(CC6CC6)CC5)CC4)cc3OC)nc2N1C(C)C [volasertib]
The method, boiled down:
as §1

Compound in assay [11]: CCn1c(C(=O)N(C2CC2)C2CC2)cc2c3c(ncn3C)c(Nc3cc(C)n(C)n3)nc21
The procedure, abridged:
as §1

Compound in assay [12]: CCn1cc(-c2ccnc3[nH]c(-c4cccc(CN(C)C)c4)cc23)c(-c2ccc(NC(=O)N(C)C)cc2)n1
The procedure, abridged: as §1

Compound in assay [13]: CN1CCC(CNc2ccc3ncc(-c4cccc(OC(F)(F)F)c4)n3n2)CC1
The procedure, abridged: as §1

Compound in another assay: CN1CCN(CCOc2cc(OC3CCOCC3)c3c(Nc4c(Cl)ccc5c4OCO5)ncnc3c2)CC1 [saracatinib]
The method, boiled down: as §1

Compound in the next assay: CN1CCN(c2nc(C3=C(c4c[nH]c5ccccc45)C(=O)NC3=O)c3ccccc3n2)CC1 [sotrastaurin]
The method, boiled down:
as §1

The list shows a part of the results.

With MAGT1 (UniProt Q9H0U3), the log2 fold change was inactive: -0.027 in the assay with ibrutinib; inactive: 0.006 in [1]; inactive: 0.028 in the assay with ralimetinib; inactive: 0.022 in assay [2]; inactive: 0.043 in assay [3]; inactive: -0.058 in [4]. Also, the log2 fold change in assay [5] was inactive: 0; in assay [6], inactive: 0.039; in assay [7], inactive: 0.028; in [8], inactive: 0.003; with vemurafenib, inactive: 0; in [9] it was inactive: 0. Moreover, the log2 fold change with barasertib is inactive: 0.004; in [10], inactive: 0.071; with volasertib, inactive: -0.013; in assay [11], inactive: -0.046; in assay [12] it was inactive: -0.079; in assay [13], inactive: 0.007. Moreover, the log2 fold change is inactive: -0.004 in the assay with saracatinib and inactive: 0.028 with sotrastaurin.
Regarding MAK16 (UniProt Q9BXY0), the log2 fold change in the assay with ibrutinib is inactive: -0.012; in assay [1] it was inactive: 0.005; with ralimetinib, inactive: -0.031; in [2], inactive: -0.067; in assay [3], inactive: 0.03; in [4], inactive: -0.039. Besides, the log2 fold change in assay [5] is inactive: -0.026; in assay [6] it was inactive: 0.006; in [7], inactive: 0.003; in assay [8], inactive: -0.065; with vemurafenib it was inactive: -0.092; in assay [9], inactive: 0.036. The log2 fold change with barasertib was inactive: 0.028; in assay [10], inactive: 0.019; in the assay with volasertib, inactive: -0.011; in assay [11], inactive: 0.028; in [12] it was inactive: 0.013; in [13], inactive: -0.07. Also, the results for the log2 fold change with saracatinib and with sotrastaurin were inactive: -0.013 and inactive: -0.054, respectively.
In the case of MAP2K1 (UniProt Q02750), the log2 fold change in the assay with ibrutinib is inactive: 0.204; in assay [1], active: 0.519; with ralimetinib, inactive: -0.021; in assay [2], inactive: 0.075; in assay [3] it was inactive: 0; in assay [4], inactive: -0.024. In addition, the log2 fold change was inactive: -0.04 in assay [5]; inactive: 0.007 in assay [6]; inactive: -0.012 in [7]; inactive: -0.004 in [8]; inactive: 0.056 with vemurafenib; inactive: 0.194 in [9]. Also, the log2 fold change is inactive: 0.022 in the assay with barasertib; inactive: -0.043 in assay [10]; inactive: -0.051 with volasertib; inactive: -0.057 in [11]; inactive: 0.281 in assay [12]; inactive: -0.041 in assay [13]. The log2 fold change in the assay with saracatinib was inactive: 0.032; with sotrastaurin, inactive: 0.015.
Turning to LYN isoform 2 (UniProt P07948), the log2 fold change was inactive: -0.104 with ralimetinib; inactive: 0.106 in assay [2]; inactive: -0.061 in assay [3]; inactive: -0.432 in assay [4]; inactive: -0.226 in assay [5]; inactive: 0.333 in assay [6]. The log2 fold change in assay [7] is inactive: -0.008; in assay [10], inactive: -0.077; in assay [11], inactive: -0.075; in assay [12], inactive: -0.031; in [13], inactive: 0.024; with saracatinib it was inactive: 0.353. Besides, the log2 fold change in the assay with sotrastaurin was inactive: 0.074.
With MAGEA2 (UniProt P43356), the log2 fold change in assay [5] is inactive: -0.006; in assay [10], inactive: 0.1; in the assay with saracatinib, inactive: -0.044.
MARVELD1 (UniProt Q9BSK0): the log2 fold change in the assay with ibrutinib was inactive: 0.148; in assay [3] it was inactive: 0.127; in assay [5] it was inactive: -0.317; with vemurafenib, inactive: -0.074; with barasertib it was inactive: 0.063; in assay [12], inactive: -0.026. In addition, the log2 fold change in assay [13] was inactive: 0.277; with saracatinib it was inactive: 0.131.
As to MAP3K6 (UniProt O95382), the log2 fold change in [4] was inactive: -0.12; with vemurafenib, inactive: -0.006; in [10] it was inactive: 0.164.
In the case of MAPK15 (UniProt Q8TD08), the log2 fold change was inactive: -0.103 in the assay with ralimetinib; inactive: -0.188 in [2]; inactive: 0 in assay [3]; inactive: -0.067 in [4]; inactive: -0.208 in assay [5]; inactive: 0.236 in assay [6]. The log2 fold change was inactive: 0.065 in [7], inactive: -0.185 in assay [11], inactive: 0.039 in the assay with saracatinib and inactive: 0.114 in the assay with sotrastaurin.
